Measurements from PMC6214143, “Oncotoxic Properties of Serotonin Transporter Inhibitors and 5-HT1A Receptor Ligands” (International Journal of Molecular Sciences, 2018).

Assays:
SH-SY5Y cells = assay: MTT cell survival assay, SH-SY5Y cells; assay type: cell-based, human
Description: (§1) The effects of the test compounds on the survival of PC-3, SH-SY5Y, Balb/c 3T3 and HEK293 cells was measured with the aid of the 3-(4,5-dimethylthiazol-2-yl)-2,5-diphenyltetrazolium bromide (MTT) assay. The cells were cultured in 96-well plates (100 μL/well) for 72 h. The optimized initial densities were the following: for PC-3—60,000 cells/mL, SH-SY5Y and Balb/c 3T3—50,000 cells/mL.
(§2) After 20 h preincubation and evaluation of the uniformity of cell growth, the medium was aspirated, and the respective solutions of the substances were added to the culture medium. Control cells were only treated the solvent used for the compounds and medium alone.
(§3) MTT (3-(4,5-dimethylthiazol-2-yl)-2,5-diphenyltetrazolium bromide) is reduced by intracellular dehydrogenase, which is present only in live cells (mitochondria), to purple, water-insoluble formazan. After it is dissolved, formazan absorbance of the resulting solution is directly proportional to the number of living cells in culture.
(§4) After appropriate incubation, the culture medium was removed. Next, 50 μL of MTT solution (0.5 mg/mL) diluted in PBS to 0.5 mg/mL was added to each well. […] The test was performed in three to five independent experiments with four times the measured concentration tested. The cell survival percentage was determined as % of controls, which were cells treated with the test compound solvent at the highest concentration.

PC-3 cells = assay: MTT cell survival assay, PC-3 cells; assay type: cell-based, human
Description: as §1, §2, §3, §4

SMILES | IC50 ratio parent/acetylated derivative (SH-SY5Y cells) | IC50 ratio parent/acetylated derivative (PC-3 cells)
COCCCC/C(=N\OCCNC(C)=O)c1ccc(C(F)(F)F)cc1 [N-Ac-Fluvoxamine, reference compound] | 0.80 | 0.52
CC(=O)N1CCC(c2ccc(F)cc2)C(COc2ccc3c(c2)OCO3)C1 (stereo not shown) [N-Ac-Paroxetine, reference compound] | 0.28 | 0.27
